Results deposited as PubChem BioAssay AID504791 (Drosophila RNAi Screening Center, 2011).
The screen tested about 23,000 reagents; shown is a random part of those that have a named target and a result. In the full data, 199 (0.86%) were called active. 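Plate-scaled ratios behind the calls are not deposited; printed light signals are raw; many rows marked increased or decreased are still called inactive.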 Unmarked entries are inactive. The record does not give: the direction of the score.

Assay: 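Genes whose knock-down strengthens or weakens small-RNA reporter silencing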 (primary screen)
System: Drosophila S2-derived reporter cells
Knock-down reagent: long dsRNA against Drosophila genes, about 150-250 ng dsRNA per well (siRNA assay); about 80-120 ng (miRNA assay)
Duration: about 5 days (siRNA assay); about 4 days (miRNA assay)
Treatment: copper sulfate induction of reporters: 25 µM (siRNA assay); 200 mM stated (miRNA assay), 1-2 days before reading
Measured: 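Dual luciferase assay: Renilla to firefly signal ratio in each well, scaled to the mean ratio of its plate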
Call rule: 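a well was a first-pass pick when its plate-scaled ratio rose above 1.5 (siRNA assay) or 1.6 (miRNA assay), or dropped below 0.6; a gene counted only if two separate dsRNAs agreed on retest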

For Ugt36D1 [SID104182392], the values are stable assay Renilla, run 1 (luminescence) = 9551; stable assay firefly, run 1 (luminescence) = 1.66e6. Against Rdl [SID104191056], the values are stable assay Renilla, run 1 (luminescence) = 7256; stable assay firefly, run 1 (luminescence) = 3.81e5. Knock-down of CG16956 [SID104182336] resulted in: stable assay Renilla, run 1 (luminescence) = 7000; stable assay firefly, run 1 (luminescence) = 3.66e5. Knock-down of mid [SID104182769] resulted in: stable assay Renilla, run 1 (luminescence) = 4642; stable assay firefly, run 1 (luminescence) = 3.50e5. After knock-down of mid [SID104201222], the record shows stable assay Renilla, run 1 (luminescence) = 8062; stable assay firefly, run 1 (luminescence) = 4.40e5. For FucTB [SID104182537] the deposit lists stable assay Renilla, run 1 (luminescence) = 7379; stable assay firefly, run 1 (luminescence) = 3.26e5.

Depletion of CG31804 [SID104202106] resulted in: stable assay Renilla, run 1 (luminescence) = 5935; stable assay firefly, run 1 (luminescence) = 5.18e5. Knock-down of Poc1 [SID104189505] came out at: stable assay Renilla, run 1 (luminescence) = 9949; stable assay firefly, run 1 (luminescence) = 4.70e5. Idh3b [SID104195832] scored stable assay Renilla, run 1 (luminescence) = 9200; stable assay firefly, run 1 (luminescence) = 5.21e5. For Lip1 [SID104183156], the values are stable assay Renilla, run 1 (luminescence) = 7384; stable assay firefly, run 1 (luminescence) = 4.80e5. For norpA [SID104198598], the values are stable assay Renilla, run 1 (luminescence) = 9877; stable assay firefly, run 1 (luminescence) = 4.61e5. Against CG14785 [SID104198396] the deposit lists stable assay Renilla, run 1 (luminescence) = 9692; stable assay firefly, run 1 (luminescence) = 4.48e5.

CG11333 [SID104194093] gave stable assay Renilla, run 1 (luminescence) = 7622; stable assay firefly, run 1 (luminescence) = 4.88e5. With knock-down of CG3634 [SID104191539], the record shows stable assay Renilla, run 1 (luminescence) = 6547; stable assay firefly, run 1 (luminescence) = 4.46e5. For SPR [SID104197182], the entry reads stable assay Renilla, run 1 (luminescence) = 4519; stable assay firefly, run 1 (luminescence) = 4.48e5. Depletion of SPR [SID104197678] resulted in: stable assay Renilla, run 1 (luminescence) = 7322; stable assay firefly, run 1 (luminescence) = 5.97e5. With knock-down of SPR [SID104197906], the record shows stable assay Renilla, run 1 (luminescence) = 6032; stable assay firefly, run 1 (luminescence) = 3.96e5. Knock-down of SPR [SID104201270] gave: stable assay Renilla, run 1 (luminescence) = 8758; stable assay firefly, run 1 (luminescence) = 4.22e5.

After knock-down of Cp7Fa [SID104197824], the screen gave stable assay Renilla, run 1 (luminescence) = 6006; stable assay firefly, run 1 (luminescence) = 3.07e5. With knock-down of Cp7Fa [SID104197825] the results were stable assay Renilla, run 1 (luminescence) = 7666; stable assay firefly, run 1 (luminescence) = 2.92e5. Unc-76 [SID104197985] gave stable assay Renilla, run 1 (luminescence) = 6686; stable assay firefly, run 1 (luminescence) = 3.64e5. Knock-down of Unc-76 [SID104198352] came out at: stable assay Renilla, run 1 (luminescence) = 6448; stable assay firefly, run 1 (luminescence) = 3.35e5.

An excerpt from the list above:
Cp7Fa [SID104197824] → stable assay Renilla, run 1 (luminescence): 6006; stable assay firefly, run 1 (luminescence): 3.07e5
Cp7Fa [SID104197825] → stable assay Renilla, run 1 (luminescence): 7666; stable assay firefly, run 1 (luminescence): 2.92e5

Continued:
CenB1A [SID104196715] scored stable assay Renilla, run 1 (luminescence) = 4823; stable assay firefly, run 1 (luminescence) = 4.15e5. Knock-down of lsn [SID104195873] resulted in: stable assay Renilla, run 1 (luminescence) = 6758; stable assay firefly, run 1 (luminescence) = 3.80e5. Depletion of ssp2 [SID104190844] came out at: stable assay Renilla, run 1 (luminescence) = 10075; stable assay firefly, run 1 (luminescence) = 4.72e5. CG8300 [SID104198218] showed stable assay Renilla, run 1 (luminescence) = 5692; stable assay firefly, run 1 (luminescence) = 2.53e5. Against CG8300 [SID104202588], the entry reads stable assay Renilla, run 1 (luminescence) = 3531; stable assay firefly, run 1 (luminescence) = 3.05e5. Golgin97 [SID104186687] showed stable assay Renilla, run 1 (luminescence) = 8805; stable assay firefly, run 1 (luminescence) = 5.89e5.

dgo [SID104185926] scored stable assay Renilla, run 1 (luminescence) = 7895; stable assay firefly, run 1 (luminescence) = 3.60e5. Against Sec61alpha [SID104183048], the values are stable assay Renilla, run 1 (luminescence) = 9421; stable assay firefly, run 1 (luminescence) = 8.73e5. Depletion of Reg-2 [SID104188482] came out at: stable assay Renilla, run 1 (luminescence) = 11374; stable assay firefly, run 1 (luminescence) = 5.56e5. After knock-down of eIF3b [SID104186692], the record shows stable assay Renilla, run 1 (luminescence) = 4431; stable assay firefly, run 1 (luminescence) = 3.16e5. For wa-cup [SID104192303] the deposit lists stable assay Renilla, run 1 (luminescence) = 7646; stable assay firefly, run 1 (luminescence) = 6.55e5. After knock-down of CG32588 [SID104201801], the screen gave stable assay Renilla, run 1 (luminescence) = 8693; stable assay firefly, run 1 (luminescence) = 6.23e5.

For Ocho [SID104191031], the entry reads stable assay Renilla, run 1 (luminescence) = 7178; stable assay firefly, run 1 (luminescence) = 2.77e5.
